US10975352B2, “Methods of enhancing cell survival of stem cells” (The Scripps Research Institute, priority 2008, dated 2021)
Some results were stated once for a whole list of compounds, not compound by compound.

Tested on: hESCs
Assay: ALP positive colony formation / low-density survival assay of dissociated hESCs on Matrigel
Format: cell-based, human
Conditions: Matrigel-coated plate; compounds at 2 μM
Procedure: Human ESC lines H1, HUES7 and HUES9 were cultured on irradiated MEF feeder cells in DMEM-F12 supplemented with 2 mM L-glutamine, lx nonessential amino acids, 20% serum replacement (Invitrogen) and 10 ng/ml basic Fibroblast growth factor (Invitrogen). Chemically-defined and feeder-free hESC culture was described previously (Yao, S. et al., Proc Natl Acad Sci USA 103 (18):6907-6912 (2006)). Briefly, hESCs were grown on Matrigel-coated tissue culture plates in N2B27-CDM (DMEM-F12 supplemented with 1×N2 supplements, lx B27 supplements, 2 mM L-glutamine, 0.11 mM 2-mercaptoethanol, lx nonessential amino acids, and 0.5 mg/ml BSA (fraction V)) and 20 ng/ml bFGF. Human ESCs were passaged every 5-6 days with 0.05% trypsin.
For clonal survival assays, single hESCs were diluted to clonal density and plated onto 96-well Matrigel-coated plate. For low-density survival assays, 500 cells were plated onto 96-well Matrigel-coated plate. To visualize hESC colonies, cultures were fixed in 4% paraformaldehyde in PBS for 5 min, washed once in PBS, then stained for alkaline phosphatase activity as described in manufacturer's instructions. ALP positive colonies were counted on an inverted microscope.
ALP detection kit and integrin antibodies were from Chemicon. AG825 (Erb2 inhibitor), AG1478 (EGFR inhibitor), PPP (IGFR1 inhibitor) were purchased from Calbiochem. […]

Row | Compound | enhancement of survival of single hESCs after enzymatic dissociation
1 | O=S(=O)(NCC1CC1)c1ccc(Nc2nccc(N3CCCc4cc(O)ccc43)n2)cc1 [Ptn, N-(cyclopropylmethyl)-4-(4-(6-hydroxy-3,4-dihydroquinolin-1(2H)-yl)pyrimidin-2-ylamino)benzenesulfonamide] | more than 20 fold
2 | O=C(NCc1ccccc1)c1csc(Nc2ccncn2)n1 [Tzv, N-benzyl-2-(pyrimidin-4-ylamino)thiazole-4-carboxamide] | more than 20 fold
